These are yes or no findings as the source states them, for the method shown. Binding seen in cells or lysates may run through a third protein. These calls come from enrichment with a bait or labelling near it, and not all partners need be listed. Where a sequence is shown, tags or fusion partners need not be part of it.
Biological target: T1, NLRP11-eGFP (stable HeLa FlpIn T-REx line) (human) (UniProt P59045)
T1 sequence: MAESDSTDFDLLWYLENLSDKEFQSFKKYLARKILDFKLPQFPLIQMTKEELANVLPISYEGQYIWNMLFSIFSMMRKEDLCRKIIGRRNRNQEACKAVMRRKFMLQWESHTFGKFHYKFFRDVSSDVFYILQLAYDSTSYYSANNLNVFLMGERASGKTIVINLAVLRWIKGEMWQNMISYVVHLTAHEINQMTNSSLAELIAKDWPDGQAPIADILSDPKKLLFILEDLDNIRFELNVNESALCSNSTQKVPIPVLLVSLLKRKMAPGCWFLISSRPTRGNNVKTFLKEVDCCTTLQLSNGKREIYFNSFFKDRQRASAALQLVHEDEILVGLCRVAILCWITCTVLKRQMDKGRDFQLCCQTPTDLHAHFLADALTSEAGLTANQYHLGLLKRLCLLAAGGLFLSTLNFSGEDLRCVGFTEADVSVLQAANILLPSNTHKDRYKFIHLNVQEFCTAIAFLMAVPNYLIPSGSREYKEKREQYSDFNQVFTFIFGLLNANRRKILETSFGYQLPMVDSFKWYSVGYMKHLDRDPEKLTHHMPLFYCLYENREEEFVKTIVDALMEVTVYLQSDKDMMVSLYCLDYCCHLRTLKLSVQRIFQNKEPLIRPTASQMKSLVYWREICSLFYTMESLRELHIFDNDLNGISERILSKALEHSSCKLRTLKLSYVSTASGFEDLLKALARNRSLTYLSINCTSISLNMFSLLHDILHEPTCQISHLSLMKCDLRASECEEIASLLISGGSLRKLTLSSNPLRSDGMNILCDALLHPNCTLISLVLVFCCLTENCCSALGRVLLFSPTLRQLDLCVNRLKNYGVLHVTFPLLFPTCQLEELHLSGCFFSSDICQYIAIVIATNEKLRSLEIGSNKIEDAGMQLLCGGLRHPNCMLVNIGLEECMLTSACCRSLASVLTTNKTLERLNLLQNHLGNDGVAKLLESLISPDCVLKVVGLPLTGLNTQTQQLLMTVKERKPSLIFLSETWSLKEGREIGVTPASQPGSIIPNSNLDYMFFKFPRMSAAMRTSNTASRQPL
Experiment: affinity purification with mass spectrometry; GFP-Trap agarose precipitation of NLRP11-eGFP (or eGFP as control) from doxycycline-induced HeLa FlpIn cells; Triton buffer lysate, 4°C, 3 h; on-bead trypsin digest, nanoLC-MS/MS

The chains behind the UniProt entries cited, without tags or fusion partners.
UniProt O00571: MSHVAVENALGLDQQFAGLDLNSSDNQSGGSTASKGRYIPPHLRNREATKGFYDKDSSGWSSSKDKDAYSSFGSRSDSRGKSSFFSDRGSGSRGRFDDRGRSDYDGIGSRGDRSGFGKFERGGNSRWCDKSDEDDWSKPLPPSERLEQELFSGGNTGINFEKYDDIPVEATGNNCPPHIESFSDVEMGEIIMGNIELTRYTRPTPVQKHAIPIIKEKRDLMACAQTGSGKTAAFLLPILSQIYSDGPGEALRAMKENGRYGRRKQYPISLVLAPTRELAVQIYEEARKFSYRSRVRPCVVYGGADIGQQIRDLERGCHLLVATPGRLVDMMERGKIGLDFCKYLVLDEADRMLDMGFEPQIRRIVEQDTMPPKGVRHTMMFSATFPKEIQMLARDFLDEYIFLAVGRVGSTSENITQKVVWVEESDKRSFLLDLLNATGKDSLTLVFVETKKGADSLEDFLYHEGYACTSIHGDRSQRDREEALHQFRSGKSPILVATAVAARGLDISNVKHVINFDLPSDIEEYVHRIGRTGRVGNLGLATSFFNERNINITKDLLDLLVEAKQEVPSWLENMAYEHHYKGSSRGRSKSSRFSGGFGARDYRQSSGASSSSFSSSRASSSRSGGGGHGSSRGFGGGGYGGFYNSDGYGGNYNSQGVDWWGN

With “DDX3X (endogenous, HeLa) (from UniProt O00571 1-662)” the binding was “binds”.

Reference: PMC8158815
